Results are given in words; binding and its absence hold for the method and conditions named. Binding seen in cells or lysates may run through a third protein. These calls come from enrichment with a bait or labelling near it, and not all partners need be listed.
Tests used:
Test in all cases: affinity purification with mass spectrometry; in-cell cross-linking with BMPEO3 (cysteine-specific, 14.7 Å spacer arm) before lysis; GFP-trap; LC-MS/MS; list filtered against wt DLD1 cells and sLUR-P305L-517GFP cells
sLUR-420GFP (human) = sLUR-420GFP (human) (UniProt Q14160)
sLUR-517GFP (human) = sLUR-517GFP (human) (UniProt Q14160)
sLUR-402GFP (human) = sLUR-402GFP (human) (UniProt Q14160)

By UniProt entry, the sequences of proteins in these tests, tags left out. Residues count along the entry.
sLUR-517GFP (Q14160, residues 1-517): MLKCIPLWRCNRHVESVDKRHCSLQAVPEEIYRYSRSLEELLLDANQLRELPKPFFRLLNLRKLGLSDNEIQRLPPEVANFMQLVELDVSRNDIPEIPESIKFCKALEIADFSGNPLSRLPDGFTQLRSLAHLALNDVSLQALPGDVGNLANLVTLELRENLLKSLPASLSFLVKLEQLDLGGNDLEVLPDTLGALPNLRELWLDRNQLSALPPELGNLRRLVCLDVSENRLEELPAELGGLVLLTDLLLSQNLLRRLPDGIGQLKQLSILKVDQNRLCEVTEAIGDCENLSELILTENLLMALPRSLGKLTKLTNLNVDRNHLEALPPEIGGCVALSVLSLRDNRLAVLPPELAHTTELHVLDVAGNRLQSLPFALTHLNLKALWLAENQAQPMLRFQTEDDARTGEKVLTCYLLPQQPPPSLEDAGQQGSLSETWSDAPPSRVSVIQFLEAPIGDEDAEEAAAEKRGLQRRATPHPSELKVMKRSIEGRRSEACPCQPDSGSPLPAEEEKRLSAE
sLUR-420GFP (Q14160, residues 1-420): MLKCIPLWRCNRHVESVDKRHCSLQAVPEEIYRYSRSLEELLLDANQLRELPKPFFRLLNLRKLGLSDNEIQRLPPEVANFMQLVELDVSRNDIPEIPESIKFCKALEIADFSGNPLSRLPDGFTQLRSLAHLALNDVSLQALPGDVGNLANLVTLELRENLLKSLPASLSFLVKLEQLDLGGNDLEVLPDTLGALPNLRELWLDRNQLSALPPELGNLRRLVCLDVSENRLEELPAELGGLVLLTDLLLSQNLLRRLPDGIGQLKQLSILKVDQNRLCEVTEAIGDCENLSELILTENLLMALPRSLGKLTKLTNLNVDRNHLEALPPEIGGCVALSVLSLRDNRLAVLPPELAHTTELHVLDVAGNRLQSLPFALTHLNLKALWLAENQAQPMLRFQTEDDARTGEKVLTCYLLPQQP
sLUR-402GFP (Q14160, residues 1-402): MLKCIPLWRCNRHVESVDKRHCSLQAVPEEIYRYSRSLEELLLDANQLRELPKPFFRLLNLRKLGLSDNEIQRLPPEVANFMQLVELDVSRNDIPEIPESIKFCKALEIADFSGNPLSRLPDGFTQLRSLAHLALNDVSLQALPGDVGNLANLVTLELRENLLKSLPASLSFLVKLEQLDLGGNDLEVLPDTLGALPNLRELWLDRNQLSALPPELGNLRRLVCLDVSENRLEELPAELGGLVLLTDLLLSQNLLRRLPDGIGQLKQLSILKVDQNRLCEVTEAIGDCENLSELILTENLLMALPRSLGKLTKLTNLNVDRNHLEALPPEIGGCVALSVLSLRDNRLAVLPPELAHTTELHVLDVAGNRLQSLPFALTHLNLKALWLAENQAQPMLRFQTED

Binder	binding (sLUR-420GFP (human))	binding (sLUR-517GFP (human))	binding (sLUR-402GFP (human))
Dlg3 (protein, UniProt Q92796 1-817) MHKHQHCCKCPECYEVTRLAALRRLEPPGYGDWQVPDPYGPGGGNGASAGYGGYSSQTLPSQAGATPTPRTKAKLIPTGRDVGPVPPKPVPGKSTPKLNGSGPSWWPECTCTNRDWYEQVNGSDGMFKYEEIVLERGNSGLGFSIAGGIDNPHVPDDPGIFITKIIPGGAAAMDGRLGVNDCVLRVNEVDVSEVVHSRAVEALKEAGPVVRLVVRRRQPPPETIMEVNLLKGPKGLGFSIAGGIGNQHIPGDNSIYITKIIEGGAAQKDGRLQIGDRLLAVNNTNLQDVRHEEAVASLKNTSDMVYLKVAKPGSLHLNDMYAPPDYASTFTALADNHISHNSSLGYLGAVESKVSYPAPPQVPPTRYSPIPRHMLAEEDFTREPRKIILHKGSTGLGFNIVGGEDGEGIFVSFILAGGPADLSGELRRGDRILSVNGVNLRNATHEQAAAALKRAGQSVTIVAQYRPEEYSRFESKIHDLREQMMNSSMSSGSGSLRTSEKRSLYVRALFDYDRTRDSCLPSQGLSFSYGDILHVINASDDEWWQARLVTPHGESEQIGVIPSKKRVEKKERARLKTVKFHARTGMIESNRDFPGLSDDYYGAKNLKGQEDAILSYEPVTRQEIHYARPVIILGPMKDRVNDDLISEFPHKFGSCVPHTTRPRRDNEVDGQDYHFVVSREQMEKDIQDNKFIEAGQFNDNLYGTSIQSVRAVAERGKHCILDVSGNAIKRLQQAQLYPIAIFIKPKSIEALMEMNRRQTYEQANKIYDKAMKLEQEFGEYFTAIVQGDSLEEIYNKIKQIIEDQSGHYIWVPSPEKL	binds	binds	–
Llgl1 (protein, UniProt Q15334 1-1064) MMKFRFRRQGADPQREKLKQELFAFNKTVEHGFPNQPSALAFDPELRIMAIGTRSGAVKIYGAPGVEFTGLHRDAATVTQMHFLTGQGRLLSLLDDSSLHLWEIVHHNGCAHLEEALSFQLPSRPGFDGASAPLSLTRVTVVLLVAASDIAALGTEGSSVFFLDVTTLTLLEGQTLAPGEVLRSVPDDYRCGKALGPVESLQGHLRDPTKILIGYSRGLLVIWNQASQCVDHIFLGNQQLESLCWGRDSSTVVSSHSDGSYAVWSVDAGSFPTLQPTVATTPYGPFPCKAINKILWRNCESGGHFIIFSGGMPRASYGDRHCVSVLRAETLVTLDFTSRIIDFFTVHSTRPEDEFDDPQALAVLLEEELVVLDLQTPGWPAVPAPYLAPLHSSAITCSAHVASVPAKLWARIVSAGEQQSPQPVSSALSWPITGGRNLAQEPSQRGLLLTGHEDGTVRFWDASGVALRPLYKLSTAGLFQTDCEHADSLAQAAEDDWPPFRKVGCFDPYSDDPRLGVQKVALCKYTAQMVVAGTAGQVLVLELSDVPVEQAVSVAIIDLLQDREGFTWKGHERLSPRTGPLPWPAGFQPRVLVQCLPPAAVTAVTLHTEWSLVAFGTSHGFGLFDYQRKSPVLARCTLHPNDSLAMEGPLSRVKSLKKSLRQSFRRIRKSRVSGKKRAANASSKLQEANAQLAEQACPHDVEMTPVQRRIEPRSADDSLSGVVRCLYFADTFLRDGAHHGPTMWAGTNSGSVFAYALEVPAAAVGGEKRPEQAVEAVLGKEVQLMHRAPVVAIAVLDGRGRPLPEPYEASRDLAQAPDMQGGHAVLIASEEQFKVFTLPKVSAKTKFKLTAHEGCRVRKVALATFASVACEDYAETCLACLTNLGDVHVFSVPGLRPQVHYSCIRKEDISGIASCVFTRHGQGFYLISPSEFERFSLSARNITEPLCSLDINWPRDATQASYRIRESPKLSQANGTPSILLAPQSLDGSPDPAHSMGPDTPEPPEAALSPMSIDSATSADTTLDTTGDVTVEDVKDFLGSSEESEKNLRNLAEDEAHACAILIK	binds	binds	–
MPP7 (protein, UniProt Q5T2T1 1-576) MPALSTGSGSDTGLYELLAALPAQLQPHVDSQEDLTFLWDMFGEKSLHSLVKIHEKLHYYEKQSPVPILHGAAALADDLAEELQNKPLNSEIRELLKLLSKPNVKALLSVHDTVAQKNYDPVLPPMPEDIDDEEDSVKIIRLVKNREPLGATIKKDEQTGAIIVARIMRGGAADRSGLIHVGDELREVNGIPVEDKRPEEIIQILAQSQGAITFKIIPGSKEETPSKEGKMFIKALFDYNPNEDKAIPCKEAGLSFKKGDILQIMSQDDATWWQAKHEADANPRAGLIPSKHFQERRLALRRPEILVQPLKVSNRKSSGFRKSFRLSRKDKKTNKSMYECKKSDQYDTADVPTYEEVTPYRRQTNEKYRLVVLVGPVGVGLNELKRKLLISDTQHYGVTVPHTTRARRSQESDGVEYIFISKHLFETDVQNNKFIEYGEYKNNYYGTSIDSVRSVLAKNKVCLLDVQPHTVKHLRTLEFKPYVIFIKPPSIERLRETRKNAKIISSRDDQGAAKPFTEEDFQEMIKSAQIMESQYGHLFDKIIINDDLTVAFNELKTTFDKLETETHWVPVSWLHS	binds	binds	–

Now from value to binder:

binding (sLUR-420GFP (human))	binding (sLUR-517GFP (human))	binding (sLUR-402GFP (human))	Binder
binds	binds	–	Llgl2 (protein, UniProt Q6P1M3 1-1020) MRRFLRPGHDPVRERLKRDLFQFNKTVEHGFPHQPSALGYSPSLRILAIGTRSGAIKLYGAPGVEFMGLHQENNAVTQIHLLPGQCQLVTLLDDNSLHLWSLKVKGGASELQEDESFTLRGPPGAAPSATQITVVLPHSSCELLYLGTESGNVFVVQLPAFRALEDRTISSDAVLQRLPEEARHRRVFEMVEALQEHPRDPNQILIGYSRGLVVIWDLQGSRVLYHFLSSQQLENIWWQRDGRLLVSCHSDGSYCQWPVSSEAQQPEPLRSLVPYGPFPCKAITRILWLTTRQGLPFTIFQGGMPRASYGDRHCISVIHDGQQTAFDFTSRVIGFTVLTEADPAATFDDPYALVVLAEEELVVIDLQTAGWPPVQLPYLASLHCSAITCSHHVSNIPLKLWERIIAAGSRQNAHFSTMEWPIDGGTSLTPAPPQRDLLLTGHEDGTVRFWDASGVCLRLLYKLSTVRVFLTDTDPNENFSAQGEDEWPPLRKVGSFDPYSDDPRLGIQKIFLCKYSGYLAVAGTAGQVLVLELNDEAAEQAVEQVEADLLQDQEGYRWKGHERLAARSGPVRFEPGFQPFVLVQCQPPAVVTSLALHSEWRLVAFGTSHGFGLFDHQQRRQVFVKCTLHPSDQLALEGPLSRVKSLKKSLRQSFRRMRRSRVSSRKRHPAGPPGEAQEGSAKAERPGLQNMELAPVQRKIEARSAEDSFTGFVRTLYFADTYLKDSSRHCPSLWAGTNGGTIYAFSLRVPPAERRMDEPVRAEQAKEIQLMHRAPVVGILVLDGHSVPLPEPLEVAHDLSKSPDMQGSHQLLVVSEEQFKVFTLPKVSAKLKLKLTALEGSRVRRVSVAHFGSRRAEDYGEHHLAVLTNLGDIQVVSLPLLKPQVRYSCIRREDVSGIASCVFTKYGQGFYLISPSEFERFSLSTKWLVEPRCLVDSAETKNHRPGNGAGPKKAPSRARNSGTQSDGEEKQPGLVMERALLSDERVLKEIQSTLEGDRGSGNWRSHRAAVGCSLSNGGAE
binds	binds	binds	PTK7 (protein, UniProt Q13308 31-1070) AIVFIKQPSSQDALQGRRALLRCEVEAPGPVHVYWLLDGAPVQDTERRFAQGSSLSFAAVDRLQDSGTFQCVARDDVTGEEARSANASFNIKWIEAGPVVLKHPASEAEIQPQTQVTLRCHIDGHPRPTYQWFRDGTPLSDGQSNHTVSSKERNLTLRPAGPEHSGLYSCCAHSAFGQACSSQNFTLSIADESFARVVLAPQDVVVARYEEAMFHCQFSAQPPPSLQWLFEDETPITNRSRPPHLRRATVFANGSLLLTQVRPRNAGIYRCIGQGQRGPPIILEATLHLAEIEDMPLFEPRVFTAGSEERVTCLPPKGLPEPSVWWEHAGVRLPTHGRVYQKGHELVLANIAESDAGVYTCHAANLAGQRRQDVNITVATVPSWLKKPQDSQLEEGKPGYLDCLTQATPKPTVVWYRNQMLISEDSRFEVFKNGTLRINSVEVYDGTWYRCMSSTPAGSIEAQARVQVLEKLKFTPPPQPQQCMEFDKEATVPCSATGREKPTIKWERADGSSLPEWVTDNAGTLHFARVTRDDAGNYTCIASNGPQGQIRAHVQLTVAVFITFKVEPERTTVYQGHTALLQCEAQGDPKPLIQWKGKDRILDPTKLGPRMHIFQNGSLVIHDVAPEDSGRYTCIAGNSCNIKHTEAPLYVVDKPVPEESEGPGSPPPYKMIQTIGLSVGAAVAYIIAVLGLMFYCKKRCKAKRLQKQPEGEEPEMECLNGGPLQNGQPSAEIQEEVALTSLGSGPAATNKRHSTSDKMHFPRSSLQPITTLGKSEFGEVFLAKAQGLEEGVAETLVLVKSLQSKDEQQQLDFRRELEMFGKLNHANVVRLLGLCREAEPHYMVLEYVDLGDLKQFLRISKSKDEKLKSQPLSTKQKVALCTQVALGMEHLSNNRFVHKDLAARNCLVSAQRQVKVSALGLSKDVYNSEYYHFRQAWVPLRWMSPEAILEGDFSTKSDVWAFGVLMWEVFTHGEMPHGGQADDEVLADLQAGKARLPQPEGCPSKLYRLMQRCWALSPKDRPSFSEIASALGDSTVDSKP

Reference: PMC8569552
